Results reported in the supplement of paper PMC6445147.
This is a noisy data set.

B1: human tRNA-Pro; a variant is named by its letters at N, in order (parent)
chain: GGCTCGTTGGTCTAGNGGTATGATTCTCGCTTAGGGTGCGAGAGGTCCCGGGTTCNNATCCCGGACGAGCCC

Variants of: B1
Test: tRNA 5' processing efficiency (processed reads / all reads, maximum-likelihood estimate) (fraction); higher = more efficient 5' processing
Details: HEK293T; construct: CMV Pol-II promoter ((+)CMV library, decapped)

Variant	tRNA 5' processing efficiency
GGCTCGTGGGTCTAGCAGTGTGATTCTCGCTTAGGGTGCGAGAGGTCCCGGGTTCACATCCCGGACGAGCCC	0.13
GGCTCGTTGGTCTAGGGGTATGATTCTCGCTTAGGGTGCGAGAGGTCCCGGGCTTAAATCCCGGACGAGCCC	0.2
GGCTCGTGCGTCTAGGGCTATGATTCTCGCTTAGGGTGCGAGAGGTCCCGGGGTCACATCCCGGACGAGCCC	0.17
GGCTCGTTGGTCTAGGGTTGTGATTCTCGCTTAGGGTGCGAGAGGTCCCGGGTTTACATCCCGGACGAGCCC	0.2
GGCTCGTTGGTCTAGGGTTATGATTCTCGCTTAGGGTGCGAGAGGTCCCGGGTTCACACCCCGGACGAGCCC	0.25
GGCTCGTTGGTCTAGGGGTCTGATTCTCGCTTAGGGTGCGAGAGGTCCCGGGTTTACATCCCGGACGAGCCC	0.25
GGCTCGTTGGTCTAGGAGGATGATTCTCGCTTAGGGTGCGAGAGGTCCCGGGTTCACATCCCGGACGAGCCC	0.4
GGCTCGTTGGTCTAGGGGTATGATTCTCGCTTAGGGTGCGAGAGGTCCCGGGGACAATTCCCGGACGAGCCC	0.4
GGCTCGTTGGTCTAGGTGTATGATTCTCGCTTAGGGTGCGAGAGGTCCCGGGTTCACTTCCCGGACGAGCCC	0.33
GGCTCGTTGGTCTAAGGCTGTGATTCTCGCTTAGGGTGCGAGAGGTCCCGGGTTCACATCCCGGACGAGCCC	0.14
GGCTCGTTGGTCTAGTGGTATGATTCTCGCTTAGGGTGCGAGAGGTCCCGGGTTAACTTCCCGGACGAGCCC	0.25
GGCTCGTTGGTCTCGGGATATGATTCTCGCTTAGGGTGCGAGAGGTCCCGGGTTTAGCTCCCGGACGAGCCC	0.33
GGCTCGTTGGTCTAGGGGTTTGATTCTCGCTTAGGGTGCGAGAGGTCCCGGGGTGACATCCCGGACGAGCCC	0.2
GGCTCGTTTGTCTAACTGTATGATTCTCGCTTAGGGTGCGAGAGGTCCCGGGGCGACATCCCGGACGAGCCC	0.5
GGCTCGTTGGTCTGGAGGCATGATTCTCGCTTAGGGTGCGAGAGGTCCCGGGCTTAGAGCCCGGACGAGCCC	0.17
GGCTCGTAGGTCTGGGGTGTTGATTCTCGCTTAGGGTGCGAGAGGTCCCGGGTTCACATCCCGGACGAGCCC	0.14
GGCTCGTTGGTCTTCGGGTATGATTCTCGCTTAGGGTGCGAGAGGTCCCGGGTTCACTTCCCGGACGAGCCC	0.29
GGCTCGTTGGTCTGGGACTATGATTCTCGCTTAGGGTGCGAGAGGTCCCGGGTTCACATCCCGGACGAGCCC	0.33
GGCTCGTTGGTCTAGCGGTATGATTCTCGCTTAGGGTGCGAGAGGTCCCGGGTGTAAAGCCCGGACGAGCCC	0.14
GGCTCGTTGGTCTAGGGGCATGATTCTCGCTTAGGGTGCGAGAGGTCCCGGGATCACACCCCGGACGAGCCC	0.33
GGCTCGTTGGTCTAGGGGGATGATTCTCGCTTAGGGTGCGAGAGGTCCCGGGGCCACATCCCGGACGAGCCC	0.17
GGCTCGTTGGTCTATGGGTCTGATTCTCGCTTAGGGTGCGAGAGGTCCCGGGTTCACATCCCGGACGAGCCC	0.5
GGCTCGTTGGTCTAGGGATATGATTCTCGCTTAGGGTGCGAGAGGTCCCGGGTGCACATCCCGGACGAGCCC	0.33
GGCTCGTTAGTCTCGCGGTATGATTCTCGCTTAGGGTGCGAGAGGTCCCGGGTTCACATCCCGGACGAGCCC	0.25
GGCTCGTTGGTCTAGTGGTTTGATTCTCGCTTAGGGTGCGAGAGGTCCCGGGTCCACGTCCCGGACGAGCCC	0.17

Variant	tRNA 5' processing efficiency
GGCTCGTTGGTCTAGGAGTATGATTCTCGCTTAGGGTGCGAGAGGTCCCGGGCTCACATCCCGGACGAGCCC	0.33
GGCTCGTTGGTCTGCGGTTATGATTCTCGCTTAGGGTGCGAGAGGTCCCGGGTTCACATCCCGGACGAGCCC	0.33
GGCTCGTTGGTCTAAGTGTTTGATTCTCGCTTAGGGTGCGAGAGGTCCCGGGTTCACATCCCGGACGAGCCC	0.25
GGCTCGTTGGTCTAGGGTTATGATTCTCGCTTAGGGTGCGAGAGGTCCCGGGTTCACTACCCGGACGAGCCC	0.25
GGCTCGTTTGTCTGGGGGCATGATTCTCGCTTAGGGTGCGAGAGGTCCCGGGATCACATCCCGGACGAGCCC	0.33
GGCTCGTTGGTCTAGGGGTATGATTCTCGCTTAGGGTGCGAGAGGTCCCGGGGTGAACTCCCGGACGAGCCC	0.11
GGCTCGTTGGTCTAGGGGCATGATTCTCGCTTAGGGTGCGAGAGGTCCCGGGTGGACATCCCGGACGAGCCC	0.33
GGCTCGTTGGTCTAGAGGTATGATTCTCGCTTAGGGTGCGAGAGGTCCCGGGCGCAAACCCCGGACGAGCCC	0.5
GGCTCGTCGGTCTAGGGGTTTGATTCTCGCTTAGGGTGCGAGAGGTCCCGGGTTCACATCCCGGACGAGCCC	0.25
GGCTCGTTTGTCTAGGAGTATGATTCTCGCTTAGGGTGCGAGAGGTCCCGGGTTTACATCCCGGACGAGCCC	0.33
GGCTCGTTGGTCTAGGTGAATGATTCTCGCTTAGGGTGCGAGAGGTCCCGGGTTCACATCCCGGACGAGCCC	0.25
GGCTCGTTGGTCTCGCCGCATGATTCTCGCTTAGGGTGCGAGAGGTCCCGGGTTCAGATCCCGGACGAGCCC	0.33
GGCTCGTTGGTCTAGCGGTATGATTCTCGCTTAGGGTGCGAGAGGTCCCGGGTCCAAATCCCGGACGAGCCC	0.2
GGCTCGTTGGTCTAGCGGTATGATTCTCGCTTAGGGTGCGAGAGGTCCCGGGTGCAAATCCCGGACGAGCCC	0.25
GGCTCGTTGGTCTAGTGTTATGATTCTCGCTTAGGGTGCGAGAGGTCCCGGGTTCACATCCCGGACGAGCCC	0.14
GGCTCGTTGGTCTGGGGGTATGATTCTCGCTTAGGGTGCGAGAGGTCCCGGGTTCAGCTCCCGGACGAGCCC	0.33
GGCTCGTTTGTCTAGAGGTATGATTCTCGCTTAGGGTGCGAGAGGTCCCGGGTTGACGTCCCGGACGAGCCC	0.11
GGCTCGTTTGTCTATCGGTATGATTCTCGCTTAGGGTGCGAGAGGTCCCGGGTCCACATCCCGGACGAGCCC	0.4
GGCTCGTTGGTCTAGGGACATGATTCTCGCTTAGGGTGCGAGAGGTCCCGGGTACACATCCCGGACGAGCCC	0.33
GGCTCGTTGGTCTAGGCGGATGATTCTCGCTTAGGGTGCGAGAGGTCCCGGGTTCACATCCCGGACGAGCCC	0.25
GGCTCGTTGGTCTCGAGCTATGATTCTCGCTTAGGGTGCGAGAGGTCCCGGGTTCAGAACCCGGACGAGCCC	0.13
GGCTCGTTGGTCTAGAGGTATGATTCTCGCTTAGGGTGCGAGAGGTCCCGGGCTTAAATCCCGGACGAGCCC	0.33
GGCTCGTTGGTCTAGTGGTATGATTCTCGCTTAGGGTGCGAGAGGTCCCGGGCACAAATCCCGGACGAGCCC	0.25
GGCTCGTTGGTCTAGCGGTATGATTCTCGCTTAGGGTGCGAGAGGTCCCGGGTGGAAATCCCGGACGAGCCC	0.25
GGCTCGTTGGTCTAGGGGTATGATTCTCGCTTAGGGTGCGAGAGGTCCCGGGGGCAATTCCCGGACGAGCCC	0.5

Retrieved one by one from the list above, 6 records:
Variant	tRNA 5' processing efficiency
GGCTCGTTGGTCTAGGTGAATGATTCTCGCTTAGGGTGCGAGAGGTCCCGGGTTCACATCCCGGACGAGCCC	0.25
GGCTCGTTGGTCTAGTGTTATGATTCTCGCTTAGGGTGCGAGAGGTCCCGGGTTCACATCCCGGACGAGCCC	0.14
GGCTCGTTTGTCTGGGGGCATGATTCTCGCTTAGGGTGCGAGAGGTCCCGGGATCACATCCCGGACGAGCCC	0.33
GGCTCGTTTGTCTATCGGTATGATTCTCGCTTAGGGTGCGAGAGGTCCCGGGTCCACATCCCGGACGAGCCC	0.4
GGCTCGTTGGTCTAGGGTTATGATTCTCGCTTAGGGTGCGAGAGGTCCCGGGTTCACTACCCGGACGAGCCC	0.25
GGCTCGTTGGTCTAGCGGTATGATTCTCGCTTAGGGTGCGAGAGGTCCCGGGTGGAAATCCCGGACGAGCCC	0.25

(listing goes on)

Variant	tRNA 5' processing efficiency
GGCTCGTTGGTCTAGGGGTATGATTCTCGCTTAGGGTGCGAGAGGTCCCGGGGCCAAATCCCGGACGAGCCC	0.25
GGCTCGTTGGTCTAGGGGTATGATTCTCGCTTAGGGTGCGAGAGGTCCCGGGTCCAAGTCCCGGACGAGCCC	0.13
GGCTCGTTGGTCTAGGGGTATGATTCTCGCTTAGGGTGCGAGAGGTCCCGGGTCGAAATCCCGGACGAGCCC	0.25
GGCTCGTTGGTCTAGGGGTATGATTCTCGCTTAGGGTGCGAGAGGTCCCGGGTAAAAATCCCGGACGAGCCC	0.5
GGCTCGTTTGTCTCGGGGTATGATTCTCGCTTAGGGTGCGAGAGGTCCCGGGATCACCTCCCGGACGAGCCC	0.2
GGCTCGTTGGTCTAGGGGTATGATTCTCGCTTAGGGTGCGAGAGGTCCCGGGGTAAAATCCCGGACGAGCCC	0.22
GGCTCGTTGGTCTAGGGGTATGATTCTCGCTTAGGGTGCGAGAGGTCCCGGGTGAAAATCCCGGACGAGCCC	0.1
GGCTCGTTGGTCTAGGGGTATGATTCTCGCTTAGGGTGCGAGAGGTCCCGGGTGTAAATCCCGGACGAGCCC	0.25
GGCTCGTTGGTCTGGGATGGTGATTCTCGCTTAGGGTGCGAGAGGTCCCGGGTTGAGATCCCGGACGAGCCC	0.25
GGCTCGTTGGTCTGCGGTTATGATTCTCGCTTAGGGTGCGAGAGGTCCCGGGGGCACATCCCGGACGAGCCC	0.25
GGCTCGTGTGTCTAGCGGTATGATTCTCGCTTAGGGTGCGAGAGGTCCCGGGTTGACATCCCGGACGAGCCC	0.5
GGCTCGTCGGTCTAGGGCTATGATTCTCGCTTAGGGTGCGAGAGGTCCCGGGTCCACAGCCCGGACGAGCCC	0.17
GGCTCGTTGGTCTAAGCGTGTGATTCTCGCTTAGGGTGCGAGAGGTCCCGGGTTCACATCCCGGACGAGCCC	0.2
GGCTCGTTGGTCTAGGGGTATGATTCTCGCTTAGGGTGCGAGAGGTCCCGGGTTAACATCCCGGACGAGCCC	0.33
GGCTCGTAGGTCTAGGGGTATGATTCTCGCTTAGGGTGCGAGAGGTCCCGGGTTTACATCCCGGACGAGCCC	0.2
GGCTCGTTGGTCTAGGGGCCTGATTCTCGCTTAGGGTGCGAGAGGTCCCGGGTTCACATCCTGGACGAGCCC	0.33
GGCTCGTTAGTCTAGGGTTATGATTCTCGCTTAGGGTGCGAGAGGTCCCGGGTCCACATCCCGGACGAGCCC	0.25
GGCTCGTTGGTCTAGGGGTATGATTCTCGCTTAGGGTGCGAGAGGTCCCGGGTGCAATTCCCGGACGAGCCC	0.25
GGCTCGTTGGTCTGGGTGTATGATTCTCGCTTAGGGTGCGAGAGGTCCCGGGTTCAGTTCCCGGACGAGCCC	0.09
GGCTCGTAGGTCTAAGGGTATGATTCTCGCTTAGGGTGCGAGAGGTCCCGGGTTCACATCCCGGACGAGCCC	0.4
GGCTCGTTGGTCTAGGGGTATGATTCTCGCTTAGGGTGCGAGAGGTCCCGGGGTCAAAGCCCGGACGAGCCC	0.29
GGCTCGTTGGTCTAGGGGTATGATTCTCGCTTAGGGTGCGAGAGGTCCCGGGCACAAATCCCGGACGAGCCC	0.2
GGCTCGTTGGTCTACGGACATGATTCTCGCTTAGGGTGCGAGAGGTCCCGGGTTCACATCCCGGACGAGCCC	0.29
GGCTCGTGGGTCTATGTGTCTGATTCTCGCTTAGGGTGCGAGAGGTCCCGGGTGAACATCCCGGACGAGCCC	0.25
GGCTCGTTGGTCTAGGTGTTTGATTCTCGCTTAGGGTGCGAGAGGTCCCGGGTTCACATCCCGGACGAGCCC	0.13
